The target in this test is DDX6 (human (endogenous in HEK293T)) (UniProt P26196). Description: co-IP; anti-DDX6 (Bethyl A300-460A) or control rabbit IgG with Dynabeads, 4 °C overnight, nuclear extracts (Gagnon-Li method) of HEK293T cells overexpressing ADAR1 or ADAR2; with or without RNase A; Western blot with ADAR1, ADAR2 and DDX6 antibodies. On the technique in general: A western blot detects proteins with antibodies after separation by electrophoresis.

Sequences of proteins named here, by UniProt entry; tags and fusion partners are left off.
UniProt P26196: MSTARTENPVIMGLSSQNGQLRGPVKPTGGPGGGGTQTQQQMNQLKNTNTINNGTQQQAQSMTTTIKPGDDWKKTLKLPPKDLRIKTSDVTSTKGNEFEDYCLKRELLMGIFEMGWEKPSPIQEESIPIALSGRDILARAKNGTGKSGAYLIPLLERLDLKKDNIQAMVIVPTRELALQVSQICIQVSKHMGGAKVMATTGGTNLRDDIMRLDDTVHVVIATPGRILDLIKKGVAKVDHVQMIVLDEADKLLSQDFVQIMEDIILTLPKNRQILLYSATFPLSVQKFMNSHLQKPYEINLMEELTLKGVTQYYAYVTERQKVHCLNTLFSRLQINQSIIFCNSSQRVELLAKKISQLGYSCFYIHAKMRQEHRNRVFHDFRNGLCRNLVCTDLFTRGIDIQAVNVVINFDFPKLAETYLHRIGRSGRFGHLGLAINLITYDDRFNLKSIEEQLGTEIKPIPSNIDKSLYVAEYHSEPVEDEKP

These are yes or no findings as the source states them, for the method shown. In cells and extracts the contact can be indirect. Some results given as binding are weak or reduced against the parent protein; the word gives no strength.

Take ADAR2 (from UniProt P78563 1-741): the binding entry is reported as “binds”.

B1: ADAR1 (protein, UniProt P55265-5 1-931)
chain: MAEIKEKICDYLFNVSDSSALNLAKNIGLTKARDINAVLIDMERQGDVYRQGTTPPIWHLTDKKRERMQIKRNTNSVPETAPAAIPETKRNAEFLTCNIPTSNASNNMVTTEKVENGQEPVIKLENRQEARPEPARLKPPVHYNGPSKAGYVDFENGQWATDDIPDDLNSIRAAPGEFRAIMEMPSFYSHGLPRCSPYKKLTECQLKNPISGLLEYAQFASQTCEFNMIEQSGPPHEPRFKFQVVINGREFPPAEAGSKKVAKQDAAMKAMTILLEEAKAKDSGKSEESSHYSTEKESEKTAESQTPTPSATSFFSGKSPVTTLLECMHKLGNSCEFRLLSKEGPAHEPKFQYCVAVGAQTFPSVSAPSKKVAKQMAAEEAMKALHGEATNSMASDNQPEGMISESLDNLESMMPNKVRKIGELVRYLNTNPVGGLLEYARSHGFAAEFKLVDQSGPPHEPKFVYQAKVGGRWFPAVCAHSKKQGKQEAADAALRVLIGENEKAERMGFTEVTPVTGASLRRTMLLLSRSPEAQPKTLPLTGSTFHDQIAMLSHRCFNTLTNSFQPSLLGRKILAAIIMKKDSEDMGVVVSLGTGNRCVKGDSLSLKGETVNDCHAEIISRRGFIRFLYSELMKYNSQTAKDSIFEPAKGGEKLQIKKTVSFHLYISTAPCGDGALFDKSCSDRAMESTESRHYPVFENPKQGKLRTKVENGEGTIPVESSDIVPTWDGIRLGERLRTMSCSDKILRWNVLGLQGALLTHFLQPIYLKSVTLGYLFSQGHLTRAICCRVTRDGSAFEDGLRHPFIVNHPKVGRVSIYDSKRQSGKTKETSVNWCLADGYDLEILDGTRGTVDGPRNELSRVSKKNIFLLFKKLCSFRYRRDLLRLSYGEAKKAARDYETAKNYFKKGLKDMGYGNWISKPQEEKNFYLCPV
With B1, the binding result is “binds”.
